Results are given in words; binding and its absence hold for the method and conditions named. In cells and extracts the contact can be indirect. Some results given as binding are weak or reduced against the parent protein; the word gives no strength.
Experiments:
[1] = target: Polo-like kinase-1 (Plk1), endogenous (human (endogenous in U2OS)) (UniProt P53350); assay: co-IP; anti-Plk1 immunoprecipitation from lysate of U2OS cells treated with nocodazole for 16 h; blotted for Plk1 and 53BP1
[2] = target: Polo-like kinase-1 (Plk1), endogenous (human (endogenous in U2OS)) (UniProt P53350); assay: co-IP; anti-Plk1 immunoprecipitation from lysate of untreated U2OS cells; blotted for Plk1 and 53BP1
[3] = target: p53-binding protein-1 (53BP1), endogenous (human (endogenous in U2OS)) (UniProt Q12888); assay: co-IP; 53BP1 immunoprecipitated with anti-53BP1 and Protein-A agarose from 500 µg lysate of mitotic U2OS cells (paclitaxel 16 h, shake-off); blotted for Plk1
[4] = target: p53-binding protein-1 (53BP1), endogenous (human (endogenous in U2OS)) (UniProt Q12888); assay: co-IP; 53BP1 immunoprecipitated with anti-53BP1 and Protein-A agarose from lysate of untreated (interphase) U2OS cells; blotted for Plk1

Protein sequences, listed by entry. Tags and fused reporters are not part of them.
UniProt P53350: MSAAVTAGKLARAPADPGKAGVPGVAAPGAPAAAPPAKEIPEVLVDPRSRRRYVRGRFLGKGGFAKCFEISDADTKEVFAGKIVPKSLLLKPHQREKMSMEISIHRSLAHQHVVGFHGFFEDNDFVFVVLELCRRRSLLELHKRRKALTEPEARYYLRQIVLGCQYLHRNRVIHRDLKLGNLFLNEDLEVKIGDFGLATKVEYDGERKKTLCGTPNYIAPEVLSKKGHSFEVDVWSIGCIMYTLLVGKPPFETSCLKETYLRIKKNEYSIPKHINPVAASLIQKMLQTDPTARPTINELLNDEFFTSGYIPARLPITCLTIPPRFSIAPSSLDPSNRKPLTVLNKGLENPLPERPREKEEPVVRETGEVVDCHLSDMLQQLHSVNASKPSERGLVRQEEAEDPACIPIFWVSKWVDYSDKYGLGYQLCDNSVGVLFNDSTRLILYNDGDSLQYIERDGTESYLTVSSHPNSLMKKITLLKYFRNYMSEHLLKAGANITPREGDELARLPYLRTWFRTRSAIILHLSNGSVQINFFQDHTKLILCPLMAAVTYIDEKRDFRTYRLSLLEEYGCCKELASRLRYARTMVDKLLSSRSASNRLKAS
UniProt Q12888: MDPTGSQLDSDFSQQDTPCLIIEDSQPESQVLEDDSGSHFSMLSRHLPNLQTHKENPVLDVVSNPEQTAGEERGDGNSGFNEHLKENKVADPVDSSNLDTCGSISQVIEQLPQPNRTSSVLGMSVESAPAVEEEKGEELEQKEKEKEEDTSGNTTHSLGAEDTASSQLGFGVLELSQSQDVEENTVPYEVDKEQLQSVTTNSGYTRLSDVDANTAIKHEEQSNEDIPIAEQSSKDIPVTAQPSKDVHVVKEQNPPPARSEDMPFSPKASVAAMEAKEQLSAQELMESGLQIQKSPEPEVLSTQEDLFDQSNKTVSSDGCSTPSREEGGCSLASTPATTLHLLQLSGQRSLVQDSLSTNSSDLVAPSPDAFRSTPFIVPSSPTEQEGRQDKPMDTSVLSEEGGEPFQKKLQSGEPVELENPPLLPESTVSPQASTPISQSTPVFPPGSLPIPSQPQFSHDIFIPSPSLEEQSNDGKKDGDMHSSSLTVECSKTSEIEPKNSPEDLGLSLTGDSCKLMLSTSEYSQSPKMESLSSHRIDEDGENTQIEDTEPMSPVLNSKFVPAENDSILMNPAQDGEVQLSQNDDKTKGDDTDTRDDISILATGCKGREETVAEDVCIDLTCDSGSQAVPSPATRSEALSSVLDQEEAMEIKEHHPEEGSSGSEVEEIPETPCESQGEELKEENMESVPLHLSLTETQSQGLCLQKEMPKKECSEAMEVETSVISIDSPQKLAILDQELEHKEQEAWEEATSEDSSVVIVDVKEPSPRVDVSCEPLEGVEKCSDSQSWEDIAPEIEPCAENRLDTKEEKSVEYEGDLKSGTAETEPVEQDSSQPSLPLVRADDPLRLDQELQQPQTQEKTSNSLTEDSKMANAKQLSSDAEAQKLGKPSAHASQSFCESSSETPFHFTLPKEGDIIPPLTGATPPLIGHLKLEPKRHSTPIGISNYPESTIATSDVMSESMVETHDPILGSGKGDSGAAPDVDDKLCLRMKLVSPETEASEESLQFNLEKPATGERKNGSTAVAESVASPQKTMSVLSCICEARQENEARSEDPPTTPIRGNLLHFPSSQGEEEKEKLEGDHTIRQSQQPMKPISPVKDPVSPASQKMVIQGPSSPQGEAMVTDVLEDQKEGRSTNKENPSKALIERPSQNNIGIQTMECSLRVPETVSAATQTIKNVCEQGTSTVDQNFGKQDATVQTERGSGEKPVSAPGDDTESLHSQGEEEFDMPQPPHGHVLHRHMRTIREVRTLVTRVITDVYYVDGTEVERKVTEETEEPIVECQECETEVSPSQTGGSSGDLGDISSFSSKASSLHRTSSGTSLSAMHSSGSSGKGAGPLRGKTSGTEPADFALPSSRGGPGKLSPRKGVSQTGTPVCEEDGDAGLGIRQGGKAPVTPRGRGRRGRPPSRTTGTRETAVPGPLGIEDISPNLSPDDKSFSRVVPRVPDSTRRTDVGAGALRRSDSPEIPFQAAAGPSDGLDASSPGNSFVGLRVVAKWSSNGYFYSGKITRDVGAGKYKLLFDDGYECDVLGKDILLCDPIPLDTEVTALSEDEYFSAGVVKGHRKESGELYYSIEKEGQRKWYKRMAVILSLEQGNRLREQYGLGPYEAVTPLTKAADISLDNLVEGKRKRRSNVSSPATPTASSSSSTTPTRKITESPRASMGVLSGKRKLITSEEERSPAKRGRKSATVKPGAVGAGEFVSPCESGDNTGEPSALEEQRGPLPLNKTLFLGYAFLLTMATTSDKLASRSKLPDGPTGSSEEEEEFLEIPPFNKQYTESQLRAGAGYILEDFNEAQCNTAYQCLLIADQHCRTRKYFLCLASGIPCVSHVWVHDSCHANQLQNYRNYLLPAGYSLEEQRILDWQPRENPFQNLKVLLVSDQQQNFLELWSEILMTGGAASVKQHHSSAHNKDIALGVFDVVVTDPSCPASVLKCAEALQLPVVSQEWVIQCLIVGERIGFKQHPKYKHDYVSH

binding [1] | binding [2] | binding [3] | binding [4] | Substance
binds | no binding (condition: interphase cells) | – | – | p53-binding protein-1 (53BP1), endogenous (from UniProt Q12888 1-1972)
– | – | binds | no binding (condition: interphase cells) | Polo-like kinase-1 (Plk1), endogenous (from UniProt P53350 1-603) (enzyme)

From PMC2811157
